From patent US6376212B1, “Polypeptide compounds and nucleotide sequences promoting resistance to eutypa dieback in plants” (Societe des Domaines Viticoles Martell, priority 1997, dated 2002)
At least one compound was matched to its structure with a doubt left.

System: eutypine reductase
Experiment: Conversion of eutypine to eutypinol: effect of reductase inhibitors
Type: biochemical, grapevine
Text: The conversion of eutypine to eutypinol is catalyzed by a non-membrane enzyme, which specifically requires NADPH as co-factor. Its activity is reduced by reductase inhibitors such as disulfiram and parahydroxymercuribenzoic acid, confirming its membership of this group of enzymes. It has been called “eutypine reductase”. The reaction scheme is shown below. [drawing 2]

## CCN(CC)C(=S)SSC(=S)N(CC)CC [disulfiram]
  activity of eutypine reductase in the presence of reductase inhibitor: reduced
